Laboratory results reported in article PMC5177772.
These are yes or no findings as the source states them, for the method shown. In cells and extracts the contact can be indirect. Some binding calls cover weakened binding; strength is not graded here. Tags and fused reporters may be left off the sequences shown.

Protein sequences, listed by entry. Tags and fused reporters are not part of them.
UniProt P10275: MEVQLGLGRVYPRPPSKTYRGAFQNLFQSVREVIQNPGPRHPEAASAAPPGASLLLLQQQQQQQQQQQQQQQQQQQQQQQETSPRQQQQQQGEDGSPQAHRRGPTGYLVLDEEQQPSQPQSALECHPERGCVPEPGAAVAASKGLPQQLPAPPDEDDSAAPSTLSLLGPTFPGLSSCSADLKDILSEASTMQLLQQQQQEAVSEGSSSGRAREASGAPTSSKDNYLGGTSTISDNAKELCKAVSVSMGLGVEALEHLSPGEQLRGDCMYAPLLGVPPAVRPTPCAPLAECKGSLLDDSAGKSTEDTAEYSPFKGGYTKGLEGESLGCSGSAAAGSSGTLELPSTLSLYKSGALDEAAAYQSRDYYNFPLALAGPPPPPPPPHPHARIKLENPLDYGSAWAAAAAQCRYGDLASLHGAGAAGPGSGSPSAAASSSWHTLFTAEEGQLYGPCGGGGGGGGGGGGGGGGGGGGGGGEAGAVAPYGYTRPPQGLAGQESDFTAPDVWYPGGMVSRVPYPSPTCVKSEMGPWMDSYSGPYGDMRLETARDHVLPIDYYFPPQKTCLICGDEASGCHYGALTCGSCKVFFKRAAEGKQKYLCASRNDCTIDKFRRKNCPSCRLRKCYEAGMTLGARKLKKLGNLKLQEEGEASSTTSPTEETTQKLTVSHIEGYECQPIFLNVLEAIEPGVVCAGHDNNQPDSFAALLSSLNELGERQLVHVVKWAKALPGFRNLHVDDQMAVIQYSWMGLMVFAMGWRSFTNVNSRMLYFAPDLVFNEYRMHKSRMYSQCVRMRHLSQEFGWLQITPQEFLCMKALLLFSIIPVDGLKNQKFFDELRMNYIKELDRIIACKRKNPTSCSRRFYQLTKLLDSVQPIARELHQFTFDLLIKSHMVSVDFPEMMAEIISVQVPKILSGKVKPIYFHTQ

Molecular target: GFP-tagged androgen receptor (AR) (UniProt P10275)
Assay: co-IP; Flag-PHF8 (wild type or H247A) and GFP-AR co-expressed in 293FT/HEK293T cells, with or without 10 nM DHT; lysis in RIPA buffer; immunoprecipitation with anti-Flag or anti-GFP antibody overnight at 4 °C, protein A/G-Sepharose, PBS washes; western blot

B1: Flag-tagged PHF8 (H247A) demethylase-deficient mutant (protein, UniProt Q9UPP1-2 1-1024)
chain: MASVPVYCLCRLPYDVTRFMIECDMCQDWFHGSCVGVEEEKAADIDLYHCPNCEVLHGPSIMKKRRGSSKGHDTHKGKPVKTGSPTFVRELRSRTFDSSDEVILKPTGNQLTVEFLEENSFSVPILVLKKDGLGMTLPSPSFTVRDVEHYVGSDKEIDVIDVTRQADCKMKLGDFVKYYYSGKREKVLNVISLEFSDTRLSNLVETPKIVRKLSWVENLWPEECVFERPNVQKYCLMSVRDSYTDFAIDFGGTSVWYHVLKGEKIFYLIRPTNANLTLFECWSSSSNQNEMFFGDQVDKCYKCSVKQGQTLFIPTGWIHAVLTPVDCLAFGGNFLHSLNIEMQLKAYEIEKRLSTADLFRFPNFETICWYVGKHILDIFRGLRENRRHPASYLVHGGKALNLAFRAWTRKEALPDHEDEIPETVRTVQLIKDLAREIRLVEDIFQQNVGKTSNIFGLQRIFPAGSIPLTRPAHSTSVSMSRLSLPSKNGSKKKGLKPKELFKKAERKGKESSALGPAGQLSYNLMDTYSHQALKTGSFQKAKFNITGACLNDSDDDSPDLDLDGNESPLALLMSNGSTKRVKSLSKSRRTKIAKKVDKARLMAEQVMEDEFDLDSDDELQIDERLGKEKATLIIRPKFPRKLPRAKPCSDPNRVREPGEVEFDIEEDYTTDEDMVEGVEGKLGNGSGAGGILDLLKASRQVGGPDYAALTEAPASPSTQEAIQGMLCMANLQSSSSSPATSSLQAWWTGGQDRSSGSSSSGLGTVSNSPASQRTPGKRPIKRPAYWRTESEEEEENASLDEQDSLGACFKDAEYIYPSLESDDDDPALKSRPKKKKNSDDAPWSPKARVTPTLPKQDRPVREGTRVASIETGLAAAAAKLAQQELQKAQKKKYIKKKPLLKEVEQPRPQDSNLSLTVPAPTVAATPQLVTSSSPLPPPEPKQEALSGSLADHEYTARPNAFGMAQANRSTTPMAPGVFLTQRRPSVGSQSNQAGQGKRPKKGLATAKQRLGRILKIHRNGKLLL
With B1 the binding was “binds”.
